Results are given in words; binding and its absence hold for the method and conditions named. Some binding calls cover weakened binding; strength is not graded here.

Amino acid sequences for entries named in this document (tags omitted). Residues count along the entry.
UniProt P29279, residues 27-349: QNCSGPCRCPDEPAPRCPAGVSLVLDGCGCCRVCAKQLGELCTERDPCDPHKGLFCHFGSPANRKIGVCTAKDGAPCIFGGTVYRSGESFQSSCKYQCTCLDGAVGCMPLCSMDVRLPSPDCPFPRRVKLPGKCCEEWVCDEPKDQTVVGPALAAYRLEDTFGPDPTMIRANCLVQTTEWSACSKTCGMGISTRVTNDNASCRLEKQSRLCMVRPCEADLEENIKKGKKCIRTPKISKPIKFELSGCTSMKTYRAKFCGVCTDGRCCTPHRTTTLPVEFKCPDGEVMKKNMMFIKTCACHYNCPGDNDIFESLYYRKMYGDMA

Assay [1] addresses human CTGF (antigen of the Biacore assays) (human) (UniProt P29279). Briefly: Biacore.
The target in assay [2] is Cynomolgus CTGF-Fc (fusion protein of cynomolgus CTGF coding region with Fc) (cynomolgus). Briefly: ELISA. A general note: ELISA stands for enzyme-linked immunosorbent assay.

B1: chimeric antibody Ch164 (antibody, human IgG1, lambda, V domains shown)
VH: QVQLKQSGPGLVQPSQSLSITCTVSGFSLTTFGVHWIRQSPGKGLEWLGVIWRRGGTDYNAAFMSRLSITKDNSRSHVFFKMTSLQTDDSAIYYCARDGGFDYWGQGTTLTVSS
VL: QAVVTQESALTTSPGGTVILTCRSSIGAVTTSNYANWVQEKPDHLFTGLIGGTSNRAPGVPVRFSGSLIGDKAALTITGAQAEDDAMYFCALWYSTHYVFGGGTKVTVLG
As to B1, the binding entry in assay [1] is “binds”.

B2: Hu95-51yk (antibody, human IgG1, kappa, V domains shown)
VH: EVQLVQSGAEVKKPGASVKVSCRASGFTFTNYAIHWVKQAPGQRLEWMGLVYPYTGGTAYNQKFKDKVTLTFDTSASTAYMELSSLRSEDTAVYYCARWGMIPGTNSYFDVWGQGTTVTVSS
VL: EIVLTQSPATLSLSPGERATLSCRASSSVSYIHWYQQKPGQAPRPWIYATSNLASGIPARFSGSGSGTDYTLTISRLEPEDFAVYYCQQWNSNPWTFGGGTKVEIKR
Turning to B2, in assay [2], the binding entry is listed as “binds”.

B3: Hu147-11wk (antibody, human IgG1, kappa, V domains shown)
VH: EVQLVESGGGLVQPGGSLRLSCAASGFTFSTYAMNWVRQAPGKGLEWVGRIRTKSNNYATYYADSVKDRFTISRDDSKNSLYLQMNSLKTEDTAVYYCVETGFAYWDQGTLVTVSS
VL: EIVLTQSPATLSLSPGERATLSCSASSSVSYMHWFQQKPGQSPRLLIYSTSNLASGIPARFSGSGSGTDYTLTISSLEPEDFAVYYCQQRSSYPLTFGQGTKLEIKR
B3: the binding entry in assay [2] and in assay [1] was “binds” in each case.

B4: Hu147-14wk (antibody, human IgG1, kappa, V domains shown)
VH: EVQLVESGGGLVQPGGSLRLSCAASGFTFSTYAMNWVRQAPGKGLEWVGRIRTKSNNYATYYADSVKDRFTISRDDSKNSLYLQMNSLKTEDTAVYYCVETGFAYWDQGTLVTVSS
VL: DIQMTQSPSSLSASVGDRVTITCSASSSVSYMHWFQQKPGKSPKLLIYSTSNLASGVPSRFSGSGSGTDYTLTISSLQPEDFATYYCQQRSSYPLTFGQGTKLEIKR
On to B4, for which the binding entry in assay [2] and in assay [1] was “binds” throughout.

B5: Hu147-15wk (antibody, human IgG1, kappa, V domains shown)
VH: EVQLVESGGGLVQPGGSLRLSCAASGFTFSTYAMNWVRQAPGKGLEWVGRIRTKSNNYATYYADSVKDRFTISRDDSKNSLYLQMNSLKTEDTAVYYCVETGFAYWDQGTLVTVSS
VL: DIQLTQSPSSLSASVGDRVTITCSASSSVSYMHWFQQKPGKSPKLWIYSTSNLASGVPSRFSGSGSGTDYTLTISSLQPEDFATYYCQQRSSYPLTFGQGTKLEIKR
For B5, the binding result in assay [2] is “binds”.

B6: Hu147-12wk (antibody, human IgG1, kappa, V domains shown)
VH: EVQLVESGGGLVQPGGSLRLSCAASGFTFSTYAMNWVRQAPGKGLEWVGRIRTKSNNYATYYADSVKDRFTISRDDSKNSLYLQMNSLKTEDTAVYYCVETGFAYWDQGTLVTVSS
VL: EIVLTQSPATLSLSPGERATLSCSASSSVSYMHWFQQKPGQSPKLLIYSTSNLASGIPARFSGSGSGTDYTLTISSLEPEDFAVYYCQQRSSYPLTFGQGTKLEIKR
B6: the binding result in assay [2] and in assay [1] was “binds” throughout.

B7: Hu147-13wk (antibody, human IgG1, kappa, V domains shown)
VH: EVQLVESGGGLVQPGGSLRLSCAASGFTFSTYAMNWVRQAPGKGLEWVGRIRTKSNNYATYYADSVKDRFTISRDDSKNSLYLQMNSLKTEDTAVYYCVETGFAYWDQGTLVTVSS
VL: EIVLTQSPATLSLSPGERATLSCSASSSVSYMHWFQQKPGQSPKLWIYSTSNLASGVPARFSGSGSGTDYTLTISSLEPEDFAVYYCQQRSSYPLTFGQGTKLEIKR
Take B7: the binding entry in assay [2] and in assay [1] was “binds” throughout.

B8: Hu164-57wl (antibody, human IgG1, lambda, V domains shown)
VH: EVTLKESGPVLVKPTETLTLTCTVSGFSLSTFGVHWIRQPPGKALEWLAVIWRRGGTDYNAAFMSRLTISKDTSKSQVVLTMTNMDPVDTATYYCARDGGFDYWGQGTTVTVSS
VL: ETVVTQEPSLTVSPGGTVTLTCRSSIGAVTTSNYANWVQQKPGQAFRGLIGGTSNRAPWTPARFSGSLLGGKAALTLSGVQPEDEAEYYCALWYSTHYVFGGGTKLTVLG
On to B8, for which the binding result in assay [2] and in assay [1] was “binds” in each case.

B9: Hu164-68wl (antibody, human IgG1, lambda, V domains shown)
VH: EVTLKESGPVLVKPTETLTLTCTVSGFSLSTFGVHWIRQPPGKGLEWLGVIWRRGGTDYNAAFMSRLTISKDTSKSQVVFTMTNMDPVDTATYYCARDGGFDYWGQGTTVTVSS
VL: ETVVTQEPSFSVSPGGTVTLTCRSSIGAVTTSNYANWVQQTPGQAFRGLIGGTSNRAPGVPDRFSGSILGNKAALTITGAQADDESDYYCALWYSTHYVFGGGTKLTVLG
Take B9: the binding entry in assay [2] and in assay [1] was “binds” each time.

B10: Hu164-87wl (antibody, human IgG1, lambda, V domains shown)
VH: EVQLQESGPGLVKPSQTLSLTCTVSGFSISTFGVHWIRQHPGKGLEWLGVIWRRGGTDYNAAFMSRLTISKDTSKNQVSFKLSSVTAADTAVYYCARDGGFDYWGQGTTVTVSS
VL: ETVVTQEPSLTVSPGGTVTLTCRSSIGAVTTSNYANWVQQKPGQAFRGLIGGTSNRAPWTPARFSGSLLGGKAALTLSGVQPEDEAEYYCALWYSTHYVFGGGTKLTVLG
Consider B10, for which the binding entry in assay [2] and in assay [1] was “binds” throughout.

B11: Hu164-77wl (antibody, human IgG1, lambda, V domains shown)
VH: EVQLQESGPGLVKPSQTLSLTCTVSGFSISTFGVHWIRQHPGKGLEWIGVIWRRGGTDYNAAFMSRVTISKDTSKNQVSLKLSSVTAADTAVYYCARDGGFDYWGQGTTVTVSS
VL: ETVVTQEPSLTVSPGGTVTLTCRSSIGAVTTSNYANWVQQKPGQAFRGLIGGTSNRAPWTPARFSGSLLGGKAALTLSGVQPEDEAEYYCALWYSTHYVFGGGTKLTVLG
Take B11: the binding result in assay [2] and in assay [1] was “binds” each time.

B12: chimeric antibody Ch147 (antibody, human IgG1, kappa, V domains shown)
VH: EVQLVESGGGLVQPEGSLKLSCAASGFSFNTYAMNWVRQAPGKGLEWVARIRTKSNNYATYYADSVKDRFTISRDDSESMLYLQMNNLKTEDTAMYYCVETGFAYWDQGTLVTVSA
VL: QIVLTQSPAIMSASPGEKVTITCSASSSVSYMHWFQQKPGTSPKLWIYSTSNLASGVPARFSGSGSGTSYSLTISRMEAEDAATYYCQQRSSYPLTFGAGTKLELKR
As for B12, in assay [1], the binding entry is reported as “binds”.

B13: Hu147-32wk (antibody, human IgG1, kappa, V domains shown)
VH: EVQLVESGGGLVQPGGSLRLSCAASGFSFNTYAMNWVRQAPGKGLEWVARIRTKSNNYATYYADSVKDRFTISRDDSESSLYLQMNSLKTEDTAVYYCVETGFAYWDQGTLVTVSS
VL: EIVLTQSPATLSLSPGERATLSCSASSSVSYMHWFQQKPGQSPKLLIYSTSNLASGIPARFSGSGSGTDYTLTISSLEPEDFAVYYCQQRSSYPLTFGQGTKLEIKR
In the case of B13, the binding result in assay [2] and in assay [1] was “binds” throughout.

B14: Hu147-23wk (antibody, human IgG1, kappa, V domains shown)
VH: EVQLVESGGGLVQPGGSLRLSCAASGFTFNTYAMNWVRQAPGKGLEWVARIRTKSNNYATYYADSVKDRFTISRDDSKNSLYLQMNSLKTEDTAVYYCVETGFAYWDQGTLVTVSS
VL: EIVLTQSPATLSLSPGERATLSCSASSSVSYMHWFQQKPGQSPKLWIYSTSNLASGVPARFSGSGSGTDYTLTISSLEPEDFAVYYCQQRSSYPLTFGQGTKLEIKR
With B14, the binding entry in assay [2] and in assay [1] was “binds” in each case.

B15: Hu147-22wk (antibody, human IgG1, kappa, V domains shown)
VH: EVQLVESGGGLVQPGGSLRLSCAASGFTFNTYAMNWVRQAPGKGLEWVARIRTKSNNYATYYADSVKDRFTISRDDSKNSLYLQMNSLKTEDTAVYYCVETGFAYWDQGTLVTVSS
VL: EIVLTQSPATLSLSPGERATLSCSASSSVSYMHWFQQKPGQSPKLLIYSTSNLASGIPARFSGSGSGTDYTLTISSLEPEDFAVYYCQQRSSYPLTFGQGTKLEIKR
As to B15, the binding entry in assay [2] and in assay [1] was “binds” in each case.

B16: Hu147-21wk (antibody, human IgG1, kappa, V domains shown)
VH: EVQLVESGGGLVQPGGSLRLSCAASGFTFNTYAMNWVRQAPGKGLEWVARIRTKSNNYATYYADSVKDRFTISRDDSKNSLYLQMNSLKTEDTAVYYCVETGFAYWDQGTLVTVSS
VL: EIVLTQSPATLSLSPGERATLSCSASSSVSYMHWFQQKPGQSPRLLIYSTSNLASGIPARFSGSGSGTDYTLTISSLEPEDFAVYYCQQRSSYPLTFGQGTKLEIKR
As for B16, the binding result in assay [2] and in assay [1] was “binds” throughout.

B17: Hu147-34wk (antibody, human IgG1, kappa, V domains shown)
VH: EVQLVESGGGLVQPGGSLRLSCAASGFSFNTYAMNWVRQAPGKGLEWVARIRTKSNNYATYYADSVKDRFTISRDDSESSLYLQMNSLKTEDTAVYYCVETGFAYWDQGTLVTVSS
VL: DIQMTQSPSSLSASVGDRVTITCSASSSVSYMHWFQQKPGKSPKLLIYSTSNLASGVPSRFSGSGSGTDYTLTISSLQPEDFATYYCQQRSSYPLTFGQGTKLEIKR
B17: the binding entry in assay [2] and in assay [1] was “binds” in each case.

B18: Hu147-31wk (antibody, human IgG1, kappa, V domains shown)
VH: EVQLVESGGGLVQPGGSLRLSCAASGFSFNTYAMNWVRQAPGKGLEWVARIRTKSNNYATYYADSVKDRFTISRDDSESSLYLQMNSLKTEDTAVYYCVETGFAYWDQGTLVTVSS
VL: EIVLTQSPATLSLSPGERATLSCSASSSVSYMHWFQQKPGQSPRLLIYSTSNLASGIPARFSGSGSGTDYTLTISSLEPEDFAVYYCQQRSSYPLTFGQGTKLEIKR
On to B18, for which the binding entry in assay [2] and in assay [1] was “binds” each time.

B19: Hu147-33wk (antibody, human IgG1, kappa, V domains shown)
VH: EVQLVESGGGLVQPGGSLRLSCAASGFSFNTYAMNWVRQAPGKGLEWVARIRTKSNNYATYYADSVKDRFTISRDDSESSLYLQMNSLKTEDTAVYYCVETGFAYWDQGTLVTVSS
VL: EIVLTQSPATLSLSPGERATLSCSASSSVSYMHWFQQKPGQSPKLWIYSTSNLASGVPARFSGSGSGTDYTLTISSLEPEDFAVYYCQQRSSYPLTFGQGTKLEIKR
For B19, the binding entry in assay [2] and in assay [1] was “binds” in each case.

B20: Hu147-24wk (antibody, human IgG1, kappa, V domains shown)
VH: EVQLVESGGGLVQPGGSLRLSCAASGFTFNTYAMNWVRQAPGKGLEWVARIRTKSNNYATYYADSVKDRFTISRDDSKNSLYLQMNSLKTEDTAVYYCVETGFAYWDQGTLVTVSS
VL: DIQMTQSPSSLSASVGDRVTITCSASSSVSYMHWFQQKPGKSPKLLIYSTSNLASGVPSRFSGSGSGTDYTLTISSLQPEDFATYYCQQRSSYPLTFGQGTKLEIKR
On to B20, for which, in assay [2], the binding result is given as “binds”.

(Values after patent US20220324953A1.)
